The test system of this test is BDF1 mice, B16 melanoma ip, median survival T/C. Put plainly: NCI In Vivo Anticancer Drug Screen. Data for tumor model B16 Melanoma (intraperitoneal) in B6D2F1 (BDF1) mice. The conditions noted are these: T/C endpoint: median survival time, higher T/C = longer survival. In outline: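 Values are ratios of treated (T) to vehicle-control (C) measurements of survival or tumor size in tumor-bearing mice.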

[1] abbreviates: dose: 20.0 mg/kg/injection, schedule: Q01DX009 (ip), vehicle: Klucel (hydroxypropylcellulose) (HPC).
Setting [2] is: dose: 100.0 mg/kg/injection, schedule: Q01DX009 (ip), vehicle: Klucel (hydroxypropylcellulose) (HPC).
Setting [3] is: dose: 12.5 mg/kg/injection, schedule: Q01DX009 (ip), vehicle: saline with Tween-80.
Setting [4] is: dose: 50.0 mg/kg/injection, schedule: Q01DX009 (ip), vehicle: saline with Tween-80.
Where [5] appears, read: dose: 100.0 mg/kg/injection, schedule: Q01DX009 (ip), vehicle: saline with Tween-80.
[6] abbreviates: dose: 400.0 mg/kg/injection, schedule: Q01DX009 (ip), vehicle: saline with Tween-80.
Setting [7] is: dose: 25.0 mg/kg/injection, schedule: Q01DX009 (ip), vehicle: water.
The mark [8] stands for this setting: dose: 200.0 mg/kg/injection, schedule: Q01DX009 (ip), vehicle: saline.
Setting [9] is: dose: 400.0 mg/kg/injection, schedule: Q01DX009 (ip), vehicle: saline.
[10] abbreviates: dose: 50.0 mg/kg/injection, schedule: Q01DX009 (ip), vehicle: Klucel (hydroxypropylcellulose) (HPC).
Setting [11] is: dose: 400.0 mg/kg/injection, schedule: Q01DX009 (ip), vehicle: Klucel (hydroxypropylcellulose) (HPC).

SMILES strings stand for the structures. The list is a part of this screen's results and no random one: it gathers tests that were run many times, whatever their T/C, doses with no T/C, and many T/C values between a quarter and a half above the control. Other doses and runs of a compound stand elsewhere. T/C is the treated group as % of the vehicle group. Some entries give survivors of the animals treated and no T/C: the source holds a T/C of zero for them, seemingly a mark for toxic or unscored doses. Some survivor counts are full or nearly so, which does not show that the dose was tolerated: the source hardly ever lists a survival T/C far under the control, and the zero likely stands for such cases as well. Counts of survivors are from the toxicity check (mostly the fifth day) where no day follows; animals may have died later. Schedules are NCI's codes, taken here to give the interval after Q, in days (D) or hours (H), and the number of doses after X. Some doses were run more than once; the results are listed from low to high. Where survival is the endpoint, this PubChem deposit counts one and a half times the control or more as active, and values a quarter to a half above the control carry no call in these data; other NCI protocols may use other cut-offs. Some T/C values carry the count of animals alive at the toxicity check (mostly the fifth day); without a count, all were alive then.

This note sets out measurements from PubChem BioAssay AID192 (DTP/NCI, 2004).

`CCOC(=O)CNC(=O)CCCCSc1ncnc2nc[nH]c12`: the survivor count is recorded as 10 of 10 under setting [1]; 10 of 10 (dose: 40.0 mg/kg/injection, schedule: Q01DX009 (ip), vehicle: Klucel (hydroxypropylcellulose) (HPC)); 10 of 10 (dose: 80.0 mg/kg/injection, schedule: Q01DX009 (ip), vehicle: Klucel (hydroxypropylcellulose) (HPC)); 10 of 10 (dose: 160.0 mg/kg/injection, schedule: Q01DX009 (ip), vehicle: Klucel (hydroxypropylcellulose) (HPC)); 10 of 10 (dose: 320.0 mg/kg/injection, schedule: Q01DX009 (ip), vehicle: Klucel (hydroxypropylcellulose) (HPC)); 10 of 10 (dose: 640.0 mg/kg/injection, schedule: Q01DX009 (ip), vehicle: Klucel (hydroxypropylcellulose) (HPC)).
Turning to `CC[n+]1c(C)ccc2ccccc21`, for the setting “dose: 100.0 mg/kg/injection, schedule: Q01DX009 (ip), vehicle: carboxymethylcellulose (CMC)”, the survivor count is listed as 0 of 10.
Take `Cn1c(N)c(C(=O)/C=C/c2ccccc2)c(=O)n(C)c1=O`: the survivor count is given as 9 of 10 (dose: 6.25 mg/kg/injection, schedule: Q01DX009 (ip), vehicle: Klucel (hydroxypropylcellulose) (HPC)); 10 of 10 (dose: 12.5 mg/kg/injection, schedule: Q01DX009 (ip), vehicle: Klucel (hydroxypropylcellulose) (HPC)); 10 of 10 (dose: 25.0 mg/kg/injection, schedule: Q01DX009 (ip), vehicle: Klucel (hydroxypropylcellulose) (HPC)); 9 of 10 under setting [2]; 4 of 10 (dose: 200.0 mg/kg/injection, schedule: Q01DX009 (ip), vehicle: Klucel (hydroxypropylcellulose) (HPC)).
For `CCCCN(C)/N=N/c1[nH]ncc1C(=O)OCC`, under “dose: 400.0 mg/kg/injection, schedule: Q01DX009 (ip), vehicle: carboxymethylcellulose (CMC)”, the survivor count is given as 6 of 6.
Consider `CS(=O)(=O)OCCN(CCOS(C)(=O)=O)c1ccc(C=O)cc1`, for which the T/C (dose: 3.12 mg/kg/injection, schedule: Q01DX009 (ip), vehicle: saline with Tween-80) was 143 % of control. The survivor count was 0 of 10 under setting [3]; 10 of 10 (dose: 25.0 mg/kg/injection, schedule: Q01DX009 (ip), vehicle: saline with Tween-80); 10 of 10 under setting [4]; 3 of 10 under setting [5].
Turning to `O=C(Nc1ccccc1C(=O)O)c1cc([N+](=O)[O-])cc([N+](=O)[O-])c1`, the survivor count under setting [6] was 4 of 10.
With `Nc1nc2c(ncn2C2OC(CO)C(O)C2O)c(=O)[nH]1.Nc1nc2c(ncn2C2OC(CO)C(O)C2O)c(=O)[nH]1.[NH2-].[NH2-].[Pt+2]` (stereo not drawn), the T/C is 131 % of control under setting [7]; 134 % of control [9 of 10 alive] (dose: 50.0 mg/kg/injection, schedule: Q01DX009 (ip), vehicle: water); 131 % of control (dose: 100.0 mg/kg/injection, schedule: Q01DX009 (ip), vehicle: water).
For the molecule `CC(C)(C)C(=O)C1C(=O)c2ccccc2C1=O`, the survivor count by setting is: (dose: 0.5 mg/kg/injection, schedule: Q01DX009 (ip), vehicle: Klucel (hydroxypropylcellulose) (HPC)) 10 of 10; (dose: 1.0 mg/kg/injection, schedule: Q01DX009 (ip), vehicle: Klucel (hydroxypropylcellulose) (HPC)) 5 of 10.
As to `O=c1[nH]c(=O)c2nc(-c3cccnc3)cnc2[nH]1`, the survivor count was 10 of 10 under setting [8] and 10 of 10 under setting [9].
With `CC1(C)N=C(N)N=C(N)N1c1cc(Cl)c(Cl)cc1Cl`, the survivor count under setting [10] is reported as 6 of 10.
On to `CCOC(=O)C(C(=O)COC)C(=O)OCC`, for which the survivor count (dose: 200.0 mg/kg/injection, schedule: Q01DX009 (ip), vehicle: water) was 8 of 8.
As for `CCCCCCCCCCCCCCNC(=O)CCl`, the survivor count under setting [11] is recorded as 9 of 10.
Turning to `CCN(C)CCN(C)CC`, the survivor count under setting [9] is 0 of 10.
For the molecule `CCOC1CCC2C(CCC(/C=C/c3ccc(O)c4ncccc34)N2C)C1` (stereo not drawn), the survivor count reads like this: under setting [3], 10 of 10; under setting [4], 10 of 10; under setting [5], 10 of 10.
In the case of `c1cc[c]([Sn][c]2ccccc2)cc1`, the T/C (dose: 1.25 mg/kg/injection, schedule: Q04DX003 (ip), vehicle: saline with Tween-80) was 130 % of control [9 of 10 alive].
For `OCCOCCOCCN1CCN(C(c2ccccc2)c2ccc(Cl)cc2)CC1` (stereo not drawn), the survivor count under setting [8] is 1 of 10.
Regarding `CCCCCCCCCCCCCCCCCCN(C)C`, the survivor count was 9 of 10 under setting [10] and 5 of 10 under setting [2].
Turning to `C[N+](C)(C)c1ncnc2c1ncn2C1CCCO1` (stereo not drawn), the T/C is, setting by setting: (dose: 12.5 mg/kg/injection, schedule: Q01DX009 (ip), vehicle: saline) 135 % of control; (dose: 25.0 mg/kg/injection, schedule: Q01DX009 (ip), vehicle: saline) 132 % of control; (dose: 50.0 mg/kg/injection, schedule: Q01DX009 (ip), vehicle: saline) 131 % of control; (dose: 100.0 mg/kg/injection, schedule: Q01DX009 (ip), vehicle: saline) 140 % of control. Also, the survivor count runs as follows: under setting [8], 5 of 10 and 10 of 10; under setting [9], 0 of 10.
For the molecule `C=CCN(C(=O)OCC)c1ccccc1`, the survivor count under setting [11] is given as 5 of 6.
As to `COc1cc2c(cc1Oc1c(Oc3c(O)c(OC)cc4c3C(CC(C)C)N(C)CC4)c(OC)cc3c1C(CC(C)C)N(C)CC3)C(CC(C)C)N(C)CC2` (stereo not drawn), the survivor count under setting [2] is listed as 5 of 10.
With `CC[CH2][Sn]([Cl])([Cl])[CH2]CC.Oc1ccccc1C=NCCN=Cc1ccccc1O`, the survivor count (dose: 10.0 mg/kg/injection, schedule: Q01DX009 (ip), vehicle: gum acacia) was 3 of 10 and 9 of 10.
Regarding `NCCCOc1ccc([N+](=O)[O-])cc1Cl`, under setting [8], the survivor count is on record as 1 of 10.
As to `CC1CN1C(=O)NCCCCCCNC(=O)N1CC1C` (stereo not drawn), the T/C is 132 % of control (dose: 1.25 mg/kg/injection, schedule: Q01DX009 (ip), vehicle: Klucel (hydroxypropylcellulose) (HPC)); 138 and 144 % of control [7 of 10 alive] (dose: 2.5 mg/kg/injection, schedule: Q01DX009 (ip), vehicle: Klucel (hydroxypropylcellulose) (HPC)). Moreover, the survivor count by setting is: (dose: 5.0 mg/kg/injection, schedule: Q01DX009 (ip), vehicle: Klucel (hydroxypropylcellulose) (HPC)) 8 of 10; (dose: 10.0 mg/kg/injection, schedule: Q01DX009 (ip), vehicle: Klucel (hydroxypropylcellulose) (HPC)) 10 of 10; (dose: 10.0 mg/kg/injection, schedule: Q01DX009 (ip), vehicle: saline) 10 of 10; under setting [1], 10 of 10.
Regarding `Cc1ccc(C)c(CCN)c1`, the survivor count under setting [4] was 10 of 10.
`CC1OC(OCc2ccc3c(c2)C(=O)c2ccccc2C3=O)CC(N)C1O` (stereo not drawn): the T/C under setting [7] was 130 % of control.
Take `C=C(C)C(=O)O[C@H]1CC2=C[C@@H](C[C@@]3(C)O[C@@H]3[C@H]3OC(=O)C(=C)[C@@H]31)OC2=O`: the survivor count (dose: 30.0 mg/kg/injection, schedule: Q01DX009 (ip), vehicle: Klucel (hydroxypropylcellulose) (HPC)) is reported as 5 of 10 and the survivor count (dose: 60.0 mg/kg/injection, schedule: Q01DX009 (ip), vehicle: Klucel (hydroxypropylcellulose) (HPC)) is 0 of 10.
Consider `CC(=O)c1ccccc1C`, for which the survivor count was 10 of 10 under setting [5]; 0 of 10 (dose: 200.0 mg/kg/injection, schedule: Q01DX009 (ip), vehicle: saline with Tween-80); 0 of 10 under setting [6].
Regarding `O=C1C=C(c2ccccc2)C(=O)C=C1c1ccccc1`, the survivor count by setting is: (dose: 50.0 mg/kg/injection, schedule: Q04DX003 (ip), vehicle: gum acacia) 10 of 10; (dose: 100.0 mg/kg/injection, schedule: Q04DX003 (ip), vehicle: gum acacia) 10 of 10.
On to `Cn1c(O)c(C=N)c(=O)[nH]c1=O`, for which the survivor count (dose: 150.0 mg/kg/injection, schedule: Q01DX009 (ip), vehicle: Klucel (hydroxypropylcellulose) (HPC)) is 10 of 10.
